Taken from: PubChem BioAssay AID504793 (Drosophila RNAi Screening Center, 2011)
Screen: 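Knock-downs allowing continued mitosis even though DNA is damaged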 (primary screen). Cells: Drosophila S2R+ cells. Reagent: long dsRNA against Drosophila genes, about 0.25 µg dsRNA per well. Timing: 4 days of dsRNA, then 4 hours of drug before read-out. Treatment: doxorubicin 0.5 µM for 4 hours to cause double-strand breaks, in cells also given a low, harmless dose of dsRNA against nbs to sensitise the assay. Read-out: 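Mitotic index as the number of phospho-histone H3-positive cells in each well following doxorubicin, given as raw counts without normalisation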. Reading the numbers: mitotic cells: higher = more cells in mitosis, weaker G2 arrest. Call rule: 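a call needs confirmation in secondary tests, with other dsRNAs and a check of mitotic timing without damage, not just a high primary count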. Calls: active = confirmed in follow-up tests; inactive = not confirmed.
The deposit covers about 23,000 reagents; shown is a random part of those with a known target gene and a result. Of all reagents, 62 (0.27%) were called active. 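Calls come from follow-up tests whose scores are not deposited, so confirmed genes may have low counts here; counts are not normalised per plate.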 Raw values vary from plate to plate and are shown uncorrected. Names joined by + are all predicted targets of the reagent. No sequences are given here.

Against CG32428 [DRSC11697], the entry reads mitotic cells, replicate 1 = 8; inactive.
Against CG32428 [DRSC11768], the values are mitotic cells, replicate 1 = 2; inactive.
With knock-down of CG32428 [DRSC25993], the record shows mitotic cells, replicate 1 = 9; inactive.
Dhit (Double hit) [DRSC07411] gave mitotic cells, replicate 1 = 4; inactive.
Dhit (Double hit) [DRSC25629] showed mitotic cells, replicate 1 = 8; inactive.
snky (sneaky) [DRSC09838] scored mitotic cells, replicate 1 = 9; inactive.
After knock-down of CG10338 [DRSC02039], the record shows mitotic cells, replicate 1 = 8; inactive.
For SkpC (SKP1-related C) [DRSC20375] the deposit lists mitotic cells, replicate 1 = 6; inactive.
SkpC (SKP1-related C) [DRSC26926] showed mitotic cells, replicate 1 = 4; inactive.
Against PGRP-LD + Cralbp + Pmi [DRSC09743] the deposit lists mitotic cells, replicate 1 = 2; inactive.
With knock-down of CG33468 [DRSC22940], the record shows mitotic cells, replicate 1 = 7; inactive.
For Cpr65Az (Cuticular protein 65Az) [DRSC09882], the entry reads mitotic cells, replicate 1 = 4; inactive.
Silencing of Cpr65Az (Cuticular protein 65Az) [DRSC22057] resulted in: mitotic cells, replicate 1 = 13; inactive.
Cpr65Az (Cuticular protein 65Az) [DRSC23964] showed mitotic cells, replicate 1 = 8; inactive.
Against CG6287 [DRSC02947] the deposit lists mitotic cells, replicate 1 = 4; inactive.
Silencing of CG6287 [DRSC27507] resulted in: mitotic cells, replicate 1 = 3; inactive.
After knock-down of CG3419 (retired record) [DRSC04368], the record shows mitotic cells, replicate 1 = 4; inactive.
Depletion of CG3419 (retired record) [DRSC04369] came out at: mitotic cells, replicate 1 = 7; inactive.
Against Ir67b (Ionotropic receptor 67b) [DRSC09876] the deposit lists mitotic cells, replicate 1 = 3; inactive.
Against c12.2 [DRSC18751], the entry reads mitotic cells, replicate 1 = 18; inactive.
c12.2 [DRSC26390] showed mitotic cells, replicate 1 = 2; inactive.
After knock-down of Tsp (Thrombospondin) [DRSC02144], the record shows mitotic cells, replicate 1 = 2; inactive.
After knock-down of Tsp (Thrombospondin) [DRSC02145] the results were mitotic cells, replicate 1 = 4; inactive.
CG15145 [DRSC02446] scored mitotic cells, replicate 1 = 2; inactive.
CG15145 [DRSC26674] gave mitotic cells, replicate 1 = 3; inactive.
Depletion of CG5171 [DRSC02823] resulted in: mitotic cells, replicate 1 = 9; inactive.
CG5171 [DRSC28092] scored mitotic cells, replicate 1 = 7; inactive.
Silencing of Rsph3 (Radial spoke head protein 3) [DRSC09696] gave: mitotic cells, replicate 1 = 4; inactive.
Depletion of Rsph3 (Radial spoke head protein 3) [DRSC10211] came out at: mitotic cells, replicate 1 = 8; inactive.
Against Rsph3 (Radial spoke head protein 3) [DRSC26917], the entry reads mitotic cells, replicate 1 = 5; inactive.
With knock-down of CG31523 [DRSC12009], the screen gave mitotic cells, replicate 1 = 10; inactive.
Knock-down of CG31523 [DRSC12337] resulted in: mitotic cells, replicate 1 = 10; inactive.
CG31523 [DRSC27253] gave mitotic cells, replicate 1 = 5; inactive.
After knock-down of CG2961 [DRSC18246], the record shows mitotic cells, replicate 1 = 7; inactive.
Silencing of CG2961 [DRSC28539] gave: mitotic cells, replicate 1 = 6; inactive.
CG11670 [DRSC14342] gave mitotic cells, replicate 1 = 1; inactive.
PIG-G (Phosphatidylinositol glycan anchor biosynthesis class G) [DRSC06823] gave mitotic cells, replicate 1 = 11; inactive.
After knock-down of ArfGAP3 (ADP-ribosylation factor GTPase activating protein 3) [DRSC11794], the screen gave mitotic cells, replicate 1 = 6; inactive.
Depletion of ArfGAP3 (ADP-ribosylation factor GTPase activating protein 3) [DRSC25639] gave: mitotic cells, replicate 1 = 9; inactive.
Knock-down of Aldh (Aldehyde dehydrogenase) [DRSC02717] resulted in: mitotic cells, replicate 1 = 4; inactive.
Silencing of Brd7-9 (Bromodomain containing 7/9) [DRSC03017] came out at: mitotic cells, replicate 1 = 5; inactive.
After knock-down of Brd7-9 (Bromodomain containing 7/9) [DRSC29592], the record shows mitotic cells, replicate 1 = 6; inactive.
After knock-down of CG5455 [DRSC15805], the screen gave mitotic cells, replicate 1 = 4; inactive.
Silencing of CG5455 [DRSC27389] resulted in: mitotic cells, replicate 1 = 4; inactive.

In a second layout: entries from further up.
{"Gene":"SkpC (SKP1-related C)","amplicon":"DRSC20375","mitotic cells, replicate 1":6,"call":"inactive"}
{"Gene":"SkpC (SKP1-related C)","amplicon":"DRSC26926","mitotic cells, replicate 1":4,"call":"inactive"}
{"Gene":"PGRP-LD + Cralbp + Pmi","amplicon":"DRSC09743","mitotic cells, replicate 1":2,"call":"inactive"}
{"Gene":"CG33468","amplicon":"DRSC22940","mitotic cells, replicate 1":7,"call":"inactive"}
{"Gene":"Cpr65Az (Cuticular protein 65Az)","amplicon":"DRSC09882","mitotic cells, replicate 1":4,"call":"inactive"}
